In PubChem BioAssay AID256 (DTP/NCI, 2004):
The list is a part of this screen's results and no random one: it is rich in T/C values a quarter to a half above the control, in often repeated tests (any T/C) and in doses without a T/C. Other doses and runs of a compound stand elsewhere. T/C gives the treated animals as a percentage of the vehicle group. Some entries give survivors of the animals treated and no T/C: the source files T/C as zero there, which appears to mark a toxic dose or a test without result, not a measured value. Some doses without a T/C left all or most animals alive at the check, yet need not have been tolerated: survival well below the control is almost never listed, so the zero probably covers shortened survival too. Survivors were counted at the toxicity check, usually on the fifth day, unless a day is given; later deaths do not show. Schedules are NCI's codes, read here as Q, the interval in days (D) or hours (H), X, the number of doses. Additions like (4×) give the number of equal values in this list. Some entries were tested several times; their values stand side by side, smallest first. Where survival is the endpoint, this PubChem deposit counts one and a half times the control or more as active, and values a quarter to a half above the control carry no call in these data; other NCI protocols may use other cut-offs. Some T/C values are followed by the survivors on the day toxicity was checked, most often the fifth; where none is given, no animal had died by that day.

Tested on: CD2F1 mice, L1210 leukemia ip, survival T/C
Experiment: NCI In Vivo Anticancer Drug Screen. Data for tumor model L1210 Leukemia (intraperitoneal) in CD2F1 (CDF1) mice
Settings: higher T/C = longer survival
Summary of the method: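 Read-out first: treated-group measurement over vehicle-control measurement, expressed as a ratio. Animals bore a transplanted tumor line and were dosed with compound or vehicle.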

[1] = T/C endpoint: mean survival time, dose: 400.0 mg/kg/injection, schedule: Q04DX003 (ip), vehicle: saline with Tween-80
[2] = T/C endpoint: mean survival time, dose: 400.0 mg/kg/injection, schedule: Q04DX002 (ip), vehicle: saline with Tween-80
[3] = T/C endpoint: mean survival time, dose: 200.0 mg/kg/injection, schedule: Q04DX003 (ip), vehicle: saline with Tween-80
[4] = T/C endpoint: mean survival time, dose: 25.0 mg/kg/injection, schedule: Q01DX009 (ip), vehicle: water
[5] = T/C endpoint: mean survival time, dose: 50.0 mg/kg/injection, schedule: Q01DX009 (ip), vehicle: water
[6] = T/C endpoint: mean survival time, dose: 100.0 mg/kg/injection, schedule: Q01DX009 (ip), vehicle: water
[7] = T/C endpoint: mean survival time, dose: 200.0 mg/kg/injection, schedule: Q01DX009 (ip), vehicle: water
[8] = T/C endpoint: median survival time, dose: 225.0 mg/kg/injection, schedule: Q04DX003 (ip), vehicle: saline

Compound: O=C(O)C(O)C(O)C(=O)O.[Cu+2] (stereo not drawn)
- survivor count (T/C endpoint: mean survival time, dose: 100.0 mg/kg/injection, schedule: Q01DX001 (ip), vehicle: saline): 0 of 6
- survivor count (T/C endpoint: mean survival time, dose: 200.0 mg/kg/injection, schedule: Q01DX001 (ip), vehicle: saline): 0 of 6
- survivor count (T/C endpoint: mean survival time, dose: 400.0 mg/kg/injection, schedule: Q01DX001 (ip), vehicle: saline): 0 of 6

Compound: Nc1cc(Cl)c(Cl)cc1Cl
- survivor count (T/C endpoint: mean survival time, dose: 100.0 mg/kg/injection, schedule: Q01DX009 (ip), vehicle: saline with Tween-80): 3 of 6
- survivor count (T/C endpoint: mean survival time, dose: 200.0 mg/kg/injection, schedule: Q01DX009 (ip), vehicle: saline with Tween-80): 3 of 6
- survivor count [1]: 2 of 6

Compound: COC(=O)C(c1ccccc1)C(c1ccccc1)c1ccccc1 (stereo not drawn)
- survivor count [2]: 3 of 3

Compound: CC(C)NC(=O)C1CC2c3cccc4[nH]cc(c34)CC2N(C)C1 (stereo not drawn)
- survivor count [3]: 0 of 6

Compound: O=C(O)[C@H](Cc1ccccc1)N1C(=O)c2ccccc2C1=O
- survivor count (T/C endpoint: median survival time, dose: 1200.0 mg/kg/injection, schedule: Q01DX005 (ip), vehicle: DMSO): 0 of 6

Compound: NC(=O)CC(N)C(=O)O.[Cl-].[Cl-].[Cl-].[Cl-].[Pt+2] (stereo not drawn)
- survivor count (T/C endpoint: mean survival time, dose: 12.5 mg/kg/injection, schedule: Q01DX009 (ip), vehicle: water): 6 of 6
- survivor count [4]: 1 of 6
- survivor count [5]: 2 of 6
- survivor count [6]: 0 of 6
- survivor count [7]: 0 of 6

Compound: CC1C(c2ccccc2)OP(=O)(N(CCCl)CCCl)N1C (stereo not drawn)
- survivor count [4]: 4 of 6
- survivor count [5]: 0 of 6
- survivor count [6]: 0 of 6
- survivor count [7]: 0 of 6 (2×)
- survivor count (T/C endpoint: mean survival time, dose: 250.0 mg/kg/injection, schedule: Q01DX001 (ip), vehicle: other): 0 of 6
- survivor count (T/C endpoint: mean survival time, dose: 500.0 mg/kg/injection, schedule: Q01DX001 (ip), vehicle: other): 0 of 6

Compound: CC(C)(C)NC(C1=CC(C)(C)c2ccccc2C1=O)c1ccccc1 (stereo not drawn)
- survivor count (T/C endpoint: median survival time, dose: 400.0 mg/kg/injection, schedule: Q01DX009 (ip), vehicle: Klucel (hydroxypropylcellulose) (HPC)): 1 of 6

Compound: CCCCCCCCCCCCCCCCCC[N+]1(C)CCC1C (stereo not drawn)
- survivor count (T/C endpoint: mean survival time, dose: 6.25 mg/kg/injection, schedule: Q01DX001 (ip), vehicle: saline): 2 of 6
- survivor count (T/C endpoint: mean survival time, dose: 12.5 mg/kg/injection, schedule: Q01DX001 (ip), vehicle: saline): 1 of 6
- survivor count (T/C endpoint: mean survival time, dose: 25.0 mg/kg/injection, schedule: Q01DX001 (ip), vehicle: saline): 0 of 6
- survivor count (T/C endpoint: mean survival time, dose: 50.0 mg/kg/injection, schedule: Q01DX001 (ip), vehicle: saline): 0 of 6
- survivor count (T/C endpoint: mean survival time, dose: 100.0 mg/kg/injection, schedule: Q01DX001 (ip), vehicle: saline with Tween-80): 0 of 6
- survivor count (T/C endpoint: mean survival time, dose: 200.0 mg/kg/injection, schedule: Q01DX001 (ip), vehicle: saline with Tween-80): 0 of 6
- survivor count (T/C endpoint: mean survival time, dose: 400.0 mg/kg/injection, schedule: Q01DX001 (ip), vehicle: saline with Tween-80): 0 of 6

Compound: CC#CC(=O)SCCNC(=O)CCNC(C)=O
- survivor count (T/C endpoint: mean survival time, dose: 200.0 mg/kg/injection, schedule: Q04DX003 (ip), vehicle: saline): 0 of 6

Compound: CC(C)(O)C#CC#CC(C)(C)O
- survivor count (T/C endpoint: mean survival time, dose: 300.0 mg/kg/injection, schedule: Q01DX001 (ip), vehicle: saline with Tween-80): 3 of 6

Compound: O=C[C@@H](CO)O[C@H](C=O)c1c[nH]c(=O)[nH]c1=O
- T/C (T/C endpoint: median survival time, dose: 5.0 mg/kg/injection, schedule: Q01DX009 (ip), vehicle: saline): 125 % of control
- T/C (T/C endpoint: median survival time, dose: 6.25 mg/kg/injection, schedule: Q01DX009 (ip), vehicle: water): 126 % of control
- T/C (T/C endpoint: median survival time, dose: 10.0 mg/kg/injection, schedule: Q01DX009 (ip), vehicle: saline): 134 % of control
- T/C (T/C endpoint: median survival time, dose: 20.0 mg/kg/injection, schedule: Q01DX009 (ip), vehicle: saline): 139 % of control
- T/C (T/C endpoint: median survival time, dose: 25.0 mg/kg/injection, schedule: Q01DX009 (ip), vehicle: saline): 135 % of control
- T/C (T/C endpoint: median survival time, dose: 25.0 mg/kg/injection, schedule: Q01DX009 (ip), vehicle: water): 142 % of control
- T/C (T/C endpoint: median survival time, dose: 44.0 mg/kg/injection, schedule: Q04DX003 (ip), vehicle: saline): 131, 137, 150 % of control
- T/C (T/C endpoint: median survival time, dose: 44.5 mg/kg/injection, schedule: Q04DX003 (ip), vehicle: saline): 130 % of control
- T/C (T/C endpoint: median survival time, dose: 50.0 mg/kg/injection, schedule: Q01DX009 (ip), vehicle: water): 136 % of control
- T/C (T/C endpoint: median survival time, dose: 67.0 mg/kg/injection, schedule: Q04DX003 (ip), vehicle: saline): 140, 150, 152 % of control
- T/C (T/C endpoint: median survival time, dose: 80.0 mg/kg/injection, schedule: Q04DX003 (ip), vehicle: saline): 149 % of control [9 of 10 alive]
- survivor count (T/C endpoint: median survival time, dose: 100.0 mg/kg/injection, schedule: Q01DX009 (ip), vehicle: saline): 3 of 6
- T/C (T/C endpoint: median survival time, dose: 100.0 mg/kg/injection, schedule: Q04DX003 (ip), vehicle: saline, evaluated on day 30): 168, 172, 180 % of control
- T/C (T/C endpoint: median survival time, dose: 100.0 mg/kg/injection, schedule: Q04DX003 (ip), vehicle: saline, evaluated on day 60): 185 % of control
- T/C (T/C endpoint: median survival time, dose: 120.0 mg/kg/injection, schedule: Q04DX003 (ip), vehicle: saline): 125 % of control
- T/C (T/C endpoint: median survival time, dose: 150.0 mg/kg/injection, schedule: Q04DX003 (ip), vehicle: saline, evaluated on day 30): 180, 189, 191, 206, 208 % of control
- T/C (T/C endpoint: median survival time, dose: 150.0 mg/kg/injection, schedule: Q04DX003 (ip), vehicle: saline, evaluated on day 60): 180 and 222 % of control
- survivor count (T/C endpoint: median survival time, dose: 200.0 mg/kg/injection, schedule: Q01DX009 (ip), vehicle: saline): 0 of 6
- T/C [8]: 131 % of control [4 of 6 alive]
- survivor count [8]: 0 of 6, 3 of 6, 5 of 6
- survivor count (T/C endpoint: median survival time, dose: 250.0 mg/kg/injection, schedule: Q04DX003 (ip), vehicle: saline): 0 of 6
- survivor count (T/C endpoint: median survival time, dose: 400.0 mg/kg/injection, schedule: Q01DX009 (ip), vehicle: saline): 0 of 6
- survivor count (T/C endpoint: median survival time, dose: 416.7 mg/kg/injection, schedule: Q04DX003 (ip), vehicle: saline): 0 of 6

Compound: NC1CCCCC1N.O=C(Nc1ccc2c(O)cc(S(=O)(=O)[O-])cc2c1)c1ccccc1.O=C(Nc1ccc2c(O)cc(S(=O)(=O)[O-])cc2c1)c1ccccc1.[Pt+4]
- T/C (T/C endpoint: median survival time, dose: 12.5 mg/kg/injection, schedule: Q04DX003 (ip), vehicle: saline with Tween-80): 141 % of control
- survivor count (T/C endpoint: median survival time, dose: 25.0 mg/kg/injection, schedule: Q04DX003 (ip), vehicle: saline with Tween-80): 6 of 6
- survivor count (T/C endpoint: median survival time, dose: 50.0 mg/kg/injection, schedule: Q04DX003 (ip), vehicle: saline with Tween-80): 5 of 6
- survivor count (T/C endpoint: median survival time, dose: 100.0 mg/kg/injection, schedule: Q04DX003 (ip), vehicle: saline with Tween-80): 0 of 6
- survivor count (T/C endpoint: median survival time, dose: 200.0 mg/kg/injection, schedule: Q04DX003 (ip), vehicle: saline with Tween-80): 0 of 6

Compound: O=C(OCC1OC(n2nc(N3CCOCC3)c(=O)[nH]c2=O)C(OC(=O)c2ccccc2)C1OC(=O)c1ccccc1)c1ccccc1 (stereo not drawn)
- survivor count (T/C endpoint: mean survival time, dose: 100.0 mg/kg/injection, schedule: Q01DX005 (ip), vehicle: distilled water + Tween-80): 6 of 6
- survivor count (T/C endpoint: mean survival time, dose: 200.0 mg/kg/injection, schedule: Q01DX005 (ip), vehicle: distilled water + Tween-80): 6 of 6

Compound: CC(C)N(CCN(C)C(=O)C(O)(c1ccccc1)c1ccccc1)C(C)C
- survivor count [3]: 2 of 3
- survivor count [1]: 0 of 3

Compound: Cc1ccc([NH-])cc1C.Cc1ccc([NH-])cc1C.[Cl][Pt+2][Cl]
- survivor count (T/C endpoint: mean survival time, dose: 100.0 mg/kg/injection, schedule: Q04DX003 (ip), vehicle: distilled water + Tween-80): 1 of 6
- survivor count (T/C endpoint: mean survival time, dose: 200.0 mg/kg/injection, schedule: Q04DX003 (ip), vehicle: distilled water + Tween-80): 0 of 6

Compound: CC(=O)c1cc(C)c[n+](C2OC(COC(=O)c3ccccc3)C(OC(=O)c3ccccc3)C2O)c1 (stereo not drawn)
- survivor count (T/C endpoint: mean survival time, dose: 200.0 mg/kg/injection, schedule: Q01DX005 (ip), vehicle: water): 0 of 6

Compound: CCCCCCCCCCCCCCCCCCN1C(=O)C2C3CCC(O3)C2C1=O (stereo not drawn)
- survivor count (T/C endpoint: mean survival time, dose: 100.0 mg/kg/injection, schedule: Q04DX002 (ip), vehicle: saline with Tween-80): 3 of 3
- survivor count (T/C endpoint: mean survival time, dose: 200.0 mg/kg/injection, schedule: Q04DX002 (ip), vehicle: saline with Tween-80): 3 of 3
- survivor count [2]: 0 of 3
